In publication PMC2646901:
No constants are given. Whether binding was seen depends on the method and setting. Some binding calls cover weakened binding; strength is not graded here.

The chains behind the UniProt entries cited, without tags or fusion partners. Residues count along the entry.
UniProt Q9P296: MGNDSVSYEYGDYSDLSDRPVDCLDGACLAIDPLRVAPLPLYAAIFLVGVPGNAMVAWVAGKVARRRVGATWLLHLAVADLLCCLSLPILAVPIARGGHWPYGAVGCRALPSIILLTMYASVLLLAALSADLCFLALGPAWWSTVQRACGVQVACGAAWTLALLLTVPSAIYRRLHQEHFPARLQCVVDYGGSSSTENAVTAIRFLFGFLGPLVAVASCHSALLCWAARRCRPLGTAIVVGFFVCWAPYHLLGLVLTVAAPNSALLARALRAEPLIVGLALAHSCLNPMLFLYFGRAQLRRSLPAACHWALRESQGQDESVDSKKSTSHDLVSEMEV
UniProt P21730: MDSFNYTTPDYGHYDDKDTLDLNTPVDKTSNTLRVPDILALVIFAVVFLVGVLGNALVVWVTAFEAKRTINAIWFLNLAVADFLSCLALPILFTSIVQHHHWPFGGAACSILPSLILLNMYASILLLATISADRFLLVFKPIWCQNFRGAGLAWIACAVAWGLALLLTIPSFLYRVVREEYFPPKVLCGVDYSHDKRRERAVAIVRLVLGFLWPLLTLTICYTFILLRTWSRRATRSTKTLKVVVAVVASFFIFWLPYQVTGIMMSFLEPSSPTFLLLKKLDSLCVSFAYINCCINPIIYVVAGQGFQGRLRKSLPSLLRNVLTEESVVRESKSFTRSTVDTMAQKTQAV
UniProt P01031, residues 678-751: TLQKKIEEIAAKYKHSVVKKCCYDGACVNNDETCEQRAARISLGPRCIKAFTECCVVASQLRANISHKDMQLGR

Assays:
[1] = molecular target: C5a-like receptor 2 (C5L2), the second C5a receptor (UniProt Q9P296); assay: flow cytometry on cells; inhibition of ligand binding: transfected cells co-incubated with rCHIPS(28-149) and His6-C5a (50 nM), His6-C5a des Arg (50 nM) or FITC-formyl peptide (500 nM); 30 min at 4 °C in PBS + 0.1% BSA, 0.2% NaN3; His6 ligands detected with anti-RGSHis6 and anti-mouse IgG-FITC; only the binder purified
[2] = molecular target: human C5a receptor (C5aR) (human) (UniProt P21730); assay: as above

His6-tagged C5a (from UniProt P01031 678-751) (ligand)
binding [1]: binds
binding [2]: binds
